The other results are listed elsewhere or left out. Small differences around the control level are noise.

The chains behind the UniProt entries cited, without tags or fusion partners. Where a name states a change or a piece, a line headed by the entry shows the natural chain unless it says otherwise.
UniProt Q61171: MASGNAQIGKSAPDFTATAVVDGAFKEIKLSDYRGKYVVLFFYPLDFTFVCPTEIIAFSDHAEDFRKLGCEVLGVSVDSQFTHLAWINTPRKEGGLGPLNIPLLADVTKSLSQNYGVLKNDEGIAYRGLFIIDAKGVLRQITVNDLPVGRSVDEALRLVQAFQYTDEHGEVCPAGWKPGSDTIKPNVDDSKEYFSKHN
UniProt Q5FWH2: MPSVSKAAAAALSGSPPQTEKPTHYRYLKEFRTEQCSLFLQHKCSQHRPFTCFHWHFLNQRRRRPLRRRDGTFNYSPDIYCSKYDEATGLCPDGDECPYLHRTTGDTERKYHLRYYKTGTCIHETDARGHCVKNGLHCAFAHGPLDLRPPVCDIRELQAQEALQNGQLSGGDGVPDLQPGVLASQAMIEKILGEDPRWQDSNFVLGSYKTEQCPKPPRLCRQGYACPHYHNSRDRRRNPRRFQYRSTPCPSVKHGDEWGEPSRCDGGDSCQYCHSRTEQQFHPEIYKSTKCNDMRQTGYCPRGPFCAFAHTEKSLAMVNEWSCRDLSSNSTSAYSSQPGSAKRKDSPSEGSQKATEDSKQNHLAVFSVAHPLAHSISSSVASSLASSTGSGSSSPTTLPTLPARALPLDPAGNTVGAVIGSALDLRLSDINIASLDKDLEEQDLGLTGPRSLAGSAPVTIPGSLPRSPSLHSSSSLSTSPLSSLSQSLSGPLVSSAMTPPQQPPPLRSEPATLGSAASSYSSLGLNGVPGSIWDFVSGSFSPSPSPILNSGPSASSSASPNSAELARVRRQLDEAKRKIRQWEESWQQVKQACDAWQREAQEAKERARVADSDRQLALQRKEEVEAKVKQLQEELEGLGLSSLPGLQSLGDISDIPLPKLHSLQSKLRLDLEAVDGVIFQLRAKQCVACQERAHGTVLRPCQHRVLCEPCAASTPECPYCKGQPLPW
UniProt Q60714: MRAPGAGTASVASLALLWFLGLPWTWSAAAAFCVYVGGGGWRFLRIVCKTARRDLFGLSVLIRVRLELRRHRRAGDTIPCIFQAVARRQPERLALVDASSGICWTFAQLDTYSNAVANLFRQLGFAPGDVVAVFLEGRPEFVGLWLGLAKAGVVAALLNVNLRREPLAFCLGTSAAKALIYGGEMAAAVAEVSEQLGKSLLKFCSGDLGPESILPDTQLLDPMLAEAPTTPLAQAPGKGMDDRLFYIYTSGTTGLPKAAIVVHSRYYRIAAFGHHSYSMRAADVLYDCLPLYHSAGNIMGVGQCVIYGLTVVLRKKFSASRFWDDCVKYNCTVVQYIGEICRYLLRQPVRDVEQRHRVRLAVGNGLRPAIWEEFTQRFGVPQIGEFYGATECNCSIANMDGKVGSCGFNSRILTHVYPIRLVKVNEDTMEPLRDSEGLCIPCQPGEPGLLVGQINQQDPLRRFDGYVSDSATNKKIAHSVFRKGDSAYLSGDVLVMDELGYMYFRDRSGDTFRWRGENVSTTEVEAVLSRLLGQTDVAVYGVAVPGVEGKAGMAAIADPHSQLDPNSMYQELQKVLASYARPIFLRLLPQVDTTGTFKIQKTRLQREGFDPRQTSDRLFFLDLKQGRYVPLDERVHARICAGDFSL
UniProt Q5NCI0: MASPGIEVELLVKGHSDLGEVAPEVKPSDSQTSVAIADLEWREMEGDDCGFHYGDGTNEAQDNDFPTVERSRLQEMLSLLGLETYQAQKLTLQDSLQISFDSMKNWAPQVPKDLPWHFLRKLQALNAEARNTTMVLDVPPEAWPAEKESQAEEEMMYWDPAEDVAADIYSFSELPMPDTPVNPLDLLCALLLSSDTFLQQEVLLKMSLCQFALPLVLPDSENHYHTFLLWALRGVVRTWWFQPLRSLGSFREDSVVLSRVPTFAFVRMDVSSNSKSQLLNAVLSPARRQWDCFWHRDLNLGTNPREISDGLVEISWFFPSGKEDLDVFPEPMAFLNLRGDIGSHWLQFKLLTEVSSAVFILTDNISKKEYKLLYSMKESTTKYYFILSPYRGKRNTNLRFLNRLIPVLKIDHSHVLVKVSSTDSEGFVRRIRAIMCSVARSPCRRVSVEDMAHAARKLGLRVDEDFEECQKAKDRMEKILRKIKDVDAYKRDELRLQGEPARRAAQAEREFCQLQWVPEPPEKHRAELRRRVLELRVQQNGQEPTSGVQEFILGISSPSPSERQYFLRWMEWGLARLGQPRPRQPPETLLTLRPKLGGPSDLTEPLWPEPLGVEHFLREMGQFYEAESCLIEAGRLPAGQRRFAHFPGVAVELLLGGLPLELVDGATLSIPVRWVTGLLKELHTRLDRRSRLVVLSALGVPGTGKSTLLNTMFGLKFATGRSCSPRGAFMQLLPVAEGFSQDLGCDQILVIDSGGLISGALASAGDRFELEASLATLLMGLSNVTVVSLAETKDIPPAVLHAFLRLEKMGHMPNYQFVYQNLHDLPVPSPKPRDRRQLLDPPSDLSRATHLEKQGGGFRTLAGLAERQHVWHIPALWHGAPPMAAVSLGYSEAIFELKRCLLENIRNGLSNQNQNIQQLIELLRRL
UniProt Q5XJY5: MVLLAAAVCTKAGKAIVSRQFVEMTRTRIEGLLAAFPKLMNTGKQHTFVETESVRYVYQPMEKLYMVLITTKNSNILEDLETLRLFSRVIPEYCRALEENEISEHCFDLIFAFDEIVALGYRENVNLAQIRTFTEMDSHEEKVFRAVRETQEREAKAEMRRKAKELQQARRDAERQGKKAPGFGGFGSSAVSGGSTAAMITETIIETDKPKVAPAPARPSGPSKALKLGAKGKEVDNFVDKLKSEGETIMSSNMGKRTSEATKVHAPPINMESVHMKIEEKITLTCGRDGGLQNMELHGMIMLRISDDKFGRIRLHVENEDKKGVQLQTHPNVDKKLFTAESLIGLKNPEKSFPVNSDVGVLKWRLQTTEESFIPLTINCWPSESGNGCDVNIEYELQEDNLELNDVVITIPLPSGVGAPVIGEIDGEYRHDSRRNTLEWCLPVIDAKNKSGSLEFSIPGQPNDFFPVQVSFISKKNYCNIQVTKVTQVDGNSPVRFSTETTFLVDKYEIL
UniProt Q60610: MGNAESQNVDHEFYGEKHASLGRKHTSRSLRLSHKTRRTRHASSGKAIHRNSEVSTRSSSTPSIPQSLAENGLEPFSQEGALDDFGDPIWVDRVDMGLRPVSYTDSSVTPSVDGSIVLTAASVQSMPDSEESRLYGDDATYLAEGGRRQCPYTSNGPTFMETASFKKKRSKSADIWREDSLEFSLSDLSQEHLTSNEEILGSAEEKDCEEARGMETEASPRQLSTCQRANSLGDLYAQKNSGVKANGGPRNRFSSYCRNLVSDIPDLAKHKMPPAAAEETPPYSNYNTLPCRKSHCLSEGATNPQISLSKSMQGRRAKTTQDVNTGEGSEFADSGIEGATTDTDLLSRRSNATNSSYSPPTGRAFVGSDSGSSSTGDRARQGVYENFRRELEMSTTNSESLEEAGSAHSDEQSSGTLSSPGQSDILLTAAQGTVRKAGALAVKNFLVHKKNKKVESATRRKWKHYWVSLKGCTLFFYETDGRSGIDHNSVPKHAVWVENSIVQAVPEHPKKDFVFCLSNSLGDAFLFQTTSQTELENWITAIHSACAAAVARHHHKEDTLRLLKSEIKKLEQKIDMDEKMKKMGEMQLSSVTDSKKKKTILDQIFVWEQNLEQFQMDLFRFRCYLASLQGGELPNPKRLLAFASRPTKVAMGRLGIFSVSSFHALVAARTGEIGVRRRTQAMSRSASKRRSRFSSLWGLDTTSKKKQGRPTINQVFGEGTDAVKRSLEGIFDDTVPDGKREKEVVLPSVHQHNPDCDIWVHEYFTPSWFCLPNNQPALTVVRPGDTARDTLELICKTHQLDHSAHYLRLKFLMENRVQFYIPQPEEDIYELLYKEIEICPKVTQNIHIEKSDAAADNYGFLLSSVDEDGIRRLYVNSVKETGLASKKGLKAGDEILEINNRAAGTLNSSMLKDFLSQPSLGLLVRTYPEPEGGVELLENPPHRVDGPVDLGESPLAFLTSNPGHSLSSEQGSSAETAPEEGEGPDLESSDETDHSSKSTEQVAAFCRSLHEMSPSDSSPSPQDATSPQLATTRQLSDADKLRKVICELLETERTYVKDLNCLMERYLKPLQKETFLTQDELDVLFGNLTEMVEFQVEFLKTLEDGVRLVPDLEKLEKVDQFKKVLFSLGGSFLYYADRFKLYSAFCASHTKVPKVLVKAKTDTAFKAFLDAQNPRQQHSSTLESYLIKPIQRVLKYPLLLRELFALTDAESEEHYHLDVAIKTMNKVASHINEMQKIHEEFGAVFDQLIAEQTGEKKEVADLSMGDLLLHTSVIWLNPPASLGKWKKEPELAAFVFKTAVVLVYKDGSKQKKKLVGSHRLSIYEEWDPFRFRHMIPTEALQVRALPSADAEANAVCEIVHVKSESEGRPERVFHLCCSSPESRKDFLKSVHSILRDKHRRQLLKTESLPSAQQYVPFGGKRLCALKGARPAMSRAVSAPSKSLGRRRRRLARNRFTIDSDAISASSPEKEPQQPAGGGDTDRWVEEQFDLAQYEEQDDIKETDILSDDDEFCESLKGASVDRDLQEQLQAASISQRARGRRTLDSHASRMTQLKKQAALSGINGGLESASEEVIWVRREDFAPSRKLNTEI
UniProt Q61216: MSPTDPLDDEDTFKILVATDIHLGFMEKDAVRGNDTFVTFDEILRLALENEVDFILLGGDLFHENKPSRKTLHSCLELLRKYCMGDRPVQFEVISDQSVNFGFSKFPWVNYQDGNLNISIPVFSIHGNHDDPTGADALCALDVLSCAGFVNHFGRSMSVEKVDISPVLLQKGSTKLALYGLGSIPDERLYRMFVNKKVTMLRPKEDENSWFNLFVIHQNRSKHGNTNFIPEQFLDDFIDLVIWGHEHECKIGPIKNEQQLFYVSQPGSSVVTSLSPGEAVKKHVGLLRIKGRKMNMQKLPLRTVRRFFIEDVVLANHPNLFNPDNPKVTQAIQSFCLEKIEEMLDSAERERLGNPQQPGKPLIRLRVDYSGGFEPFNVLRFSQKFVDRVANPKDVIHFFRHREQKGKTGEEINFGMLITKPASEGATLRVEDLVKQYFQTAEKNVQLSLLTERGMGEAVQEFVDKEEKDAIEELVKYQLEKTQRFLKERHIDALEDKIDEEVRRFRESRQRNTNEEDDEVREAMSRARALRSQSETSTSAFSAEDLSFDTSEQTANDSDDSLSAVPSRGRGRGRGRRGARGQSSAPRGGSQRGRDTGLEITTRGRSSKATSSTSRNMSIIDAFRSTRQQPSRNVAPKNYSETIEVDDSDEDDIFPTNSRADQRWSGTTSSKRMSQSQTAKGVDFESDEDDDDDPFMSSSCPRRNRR
UniProt Q5QR91: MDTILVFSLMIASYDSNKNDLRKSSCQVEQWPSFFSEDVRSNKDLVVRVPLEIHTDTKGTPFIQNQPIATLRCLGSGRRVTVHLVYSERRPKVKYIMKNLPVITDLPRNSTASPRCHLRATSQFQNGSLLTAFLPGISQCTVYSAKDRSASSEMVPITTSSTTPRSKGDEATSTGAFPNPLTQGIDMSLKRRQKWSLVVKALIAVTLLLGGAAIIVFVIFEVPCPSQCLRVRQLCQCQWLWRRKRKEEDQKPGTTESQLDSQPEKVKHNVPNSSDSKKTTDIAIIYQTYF
UniProt Q61285: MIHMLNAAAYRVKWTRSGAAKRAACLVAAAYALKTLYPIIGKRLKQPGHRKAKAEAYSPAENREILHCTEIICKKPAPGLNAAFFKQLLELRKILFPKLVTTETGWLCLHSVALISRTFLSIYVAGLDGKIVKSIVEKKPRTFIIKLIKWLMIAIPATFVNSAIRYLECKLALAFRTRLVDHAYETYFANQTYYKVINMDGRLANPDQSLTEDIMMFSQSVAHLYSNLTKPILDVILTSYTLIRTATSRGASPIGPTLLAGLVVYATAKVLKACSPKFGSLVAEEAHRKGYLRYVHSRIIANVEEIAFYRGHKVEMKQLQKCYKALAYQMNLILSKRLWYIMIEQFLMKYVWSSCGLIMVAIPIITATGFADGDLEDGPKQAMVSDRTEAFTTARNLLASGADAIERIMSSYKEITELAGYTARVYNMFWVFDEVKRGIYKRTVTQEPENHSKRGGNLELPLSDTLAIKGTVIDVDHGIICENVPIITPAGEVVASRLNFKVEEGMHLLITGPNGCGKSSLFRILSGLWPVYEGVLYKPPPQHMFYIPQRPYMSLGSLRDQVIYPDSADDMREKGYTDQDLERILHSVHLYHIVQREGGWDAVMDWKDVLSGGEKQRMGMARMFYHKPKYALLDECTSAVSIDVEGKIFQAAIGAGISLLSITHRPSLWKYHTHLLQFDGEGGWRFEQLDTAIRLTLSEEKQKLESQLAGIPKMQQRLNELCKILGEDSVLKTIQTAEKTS
UniProt Q60870: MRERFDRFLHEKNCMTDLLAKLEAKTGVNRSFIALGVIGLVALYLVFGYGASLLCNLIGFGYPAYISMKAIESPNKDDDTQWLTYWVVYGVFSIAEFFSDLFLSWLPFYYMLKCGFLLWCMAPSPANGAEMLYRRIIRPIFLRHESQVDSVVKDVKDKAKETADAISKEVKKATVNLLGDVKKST

Compound in the experiment: CN[C@@H]1C[C@H]2O[C@@](C)([C@@H]1OC)n1c3ccccc3c3c4c(c5c6ccccc6n2c5c31)C(=O)NC4 [staurosporine]
Put plainly: log2 fold change of tryptic peptide abundance, ligand vs vehicle (limited proteolysis) (log2 ratio); higher = more trypsin-susceptible (destabilized). The following applies: ligand concentration: 20 uM; sample: mouse liver crude lysate; replicate design: treated separately.
Regarding “UniProt Q61072 (peptide sequence: QPAQFPSRPPPPQPK, peptide start residue: 808)”, the log2 fold change was -0.217.

For “UniProt Q5SFM8 (peptide sequence: LQLGTPPPLLAAR, peptide start residue: 443)”, the log2 fold change is 0.132.

As to “UniProt Q5SWT3 (peptide sequence: LYNQPTDTR, peptide start residue: 233)”, the log2 fold change came to 0.303.

Consider “UniProt Q60598 (peptide sequence: LAKHESQQDYAK, peptide start residue: 293)”, for which the log2 fold change is -0.734.

Consider “UniProt Q61171 (peptide sequence: SLSQNYGVLK, peptide start residue: 110)”, for which the log2 fold change was -0.465.

For the target “UniProt Q5FWH2 (peptide sequence: AHGTVLRPCQHR, peptide start residue: 693)”, the log2 fold change is -0.117.

Consider “UniProt Q60714 (peptide sequence: LLPQVDTTGTFK, peptide start residue: 587)”, for which the log2 fold change is 0.298.

“UniProt Q5NCI0 (peptide sequence: DLNLGTNPR, peptide start residue: 297)”: the log2 fold change came to 0.198.

“UniProt Q5I012 (peptide sequence: AAPPEVPKSPEK, peptide start residue: 858)”: the log2 fold change worked out at 0.469.

As for “UniProt Q5XG71 (peptide sequence: KPAAPVPDAR, peptide start residue: 2043)”, the log2 fold change is -0.264.

Take “UniProt Q60590 (peptide sequence: QLELGKETK, peptide start residue: 191)”: the log2 fold change was -0.105.

As for “UniProt Q5XJY5 (peptide sequence: VIPEYCR, peptide start residue: 89)”, the log2 fold change is -0.317.

For the target “UniProt Q5FWI3 (peptide sequence: VVPLRPAPPPK, peptide start residue: 32)”, the log2 fold change came to 0.48.

For “UniProt Q61206 (peptide sequence: GEKPNPLR, peptide start residue: 143)”, the log2 fold change was -0.468.

In the case of “UniProt Q60610 (peptide sequence: VASHINEMQK, peptide start residue: 1307)”, the log2 fold change was -0.0133.

Take “UniProt Q5M8N0 (peptide sequence: IQPNDGPVFFK, peptide start residue: 16)”: the log2 fold change was found to be 0.158.

For “UniProt Q60790 (peptide sequence: LSEVITDTGVVCHK, peptide start residue: 133)”, the log2 fold change is -0.418.

As for “UniProt Q5SXA9 (peptide sequence: GQSCKEPPEVQSFR, peptide start residue: 1070)”, the log2 fold change is -0.314.

“UniProt Q61211 (peptide sequence: GVSVLHTYQDHLWR, peptide start residue: 165)”: the log2 fold change was -0.517.

Consider “UniProt Q61164 (peptide sequence: SDLGVHLRK, peptide start residue: 450)”, for which the log2 fold change is 0.276.

Turning to “UniProt Q60930 (peptide sequence: YQLDPTASISAK, peptide start residue: 237)”, the log2 fold change is -0.141.

On to “UniProt Q61216 (peptide sequence: HIDALEDKIDEEVR, peptide start residue: 490)”, for which the log2 fold change is -0.269.

As to “UniProt Q5QR91 (peptide sequence: RVTVHLVYSER, peptide start residue: 79)”, the log2 fold change stood at 0.184.

Turning to “UniProt Q61166 (peptide sequence: GKFQDNFEFVQWFKK, peptide start residue: 99)”, the log2 fold change is -0.969.

“UniProt Q5SZA1 (peptide sequence: EKEHITSSVAQQSSSPR, peptide start residue: 245)”: the log2 fold change is 0.084.

With “UniProt Q61285 (peptide sequence: ILHSVHLYHIVQR, peptide start residue: 584)”, the log2 fold change turned out to be 0.371.

As for “UniProt Q61207 (peptide sequence: QLESNKIPEVDMAR, peptide start residue: 152)”, the log2 fold change was -0.0578.

In the case of “UniProt Q60870 (peptide sequence: DKAKETADAISK, peptide start residue: 157)”, the log2 fold change was -0.323.

Consider “UniProt Q60769 (peptide sequence: CQACLQDVTR, peptide start residue: 506)”, for which the log2 fold change stood at 0.465.

As to “UniProt Q60864 (peptide sequence: HYTEAIK, peptide start residue: 382)”, the log2 fold change is -0.25.

For the target “UniProt Q5SQY2 (peptide sequence: GLFDSFRR, peptide start residue: 51)”, the log2 fold change is -0.187.

Take “UniProt Q60680 (peptide sequence: WCHEIQIMK, peptide start residue: 58)”: the log2 fold change turned out to be 0.664.

With “UniProt Q61239 (peptide sequence: VLVEWLK, peptide start residue: 174)”, the log2 fold change is 0.281.

As for “UniProt Q60838 (peptide sequence: VIYHLDEEETPYLVK, peptide start residue: 16)”, the log2 fold change was -0.428.

As to “UniProt Q5SSI6 (peptide sequence: ARPGSGSTPAK, peptide start residue: 23)”, the log2 fold change was 0.316.

Values taken from the supplement of paper PMC12819154, “High-throughput peptide-centric local stability assay extends protein–ligand identification to membrane proteins, tissues and bacteria” (Nature Structural & Molecular Biology, 2025).
